These are yes or no findings as the source states them, for the method shown. In cells and extracts the contact can be indirect. These calls come from enrichment with a bait or labelling near it, and not all partners need be listed.
Legend:
PD-L2-FLAG (human) = PD-L2-FLAG (human) (UniProt Q9BQ51); test: anti-FLAG immunoprecipitation and mass spectrometry, M229 R5 cells expressing PD-L2-FLAG
PD-L1 (human) [1] = molecular target: PD-L1 (human) (UniProt Q9NZQ7); test: summary sentence of Example 1 (co-immunoprecipitation, proximity labelling)
PD-L1 (human) [2] = molecular target: PD-L1 (human) (UniProt Q9NZQ7); test: IP-MS, proximity labelling and co-immunoprecipitation (FIGS. 1A-1F)

The chains behind the UniProt entries cited, without tags or fusion partners. Residues count along the entry.
UniProt Q9BQ51, residues 20-273: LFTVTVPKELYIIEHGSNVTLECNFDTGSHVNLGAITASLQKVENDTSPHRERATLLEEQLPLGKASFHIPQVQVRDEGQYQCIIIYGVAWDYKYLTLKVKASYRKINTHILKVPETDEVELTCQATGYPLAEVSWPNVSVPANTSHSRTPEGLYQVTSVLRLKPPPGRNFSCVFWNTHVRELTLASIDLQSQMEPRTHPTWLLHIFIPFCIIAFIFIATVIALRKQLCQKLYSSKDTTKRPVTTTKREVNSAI
UniProt Q9NZQ7, residues 19-290: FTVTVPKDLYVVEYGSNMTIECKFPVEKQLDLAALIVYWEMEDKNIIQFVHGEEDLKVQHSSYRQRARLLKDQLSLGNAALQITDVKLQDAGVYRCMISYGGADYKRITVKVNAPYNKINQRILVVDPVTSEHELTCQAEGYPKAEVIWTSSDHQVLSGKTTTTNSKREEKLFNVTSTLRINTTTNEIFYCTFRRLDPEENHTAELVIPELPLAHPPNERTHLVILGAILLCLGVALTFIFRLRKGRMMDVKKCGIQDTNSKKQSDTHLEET
UniProt Q96J02, residues 2-903: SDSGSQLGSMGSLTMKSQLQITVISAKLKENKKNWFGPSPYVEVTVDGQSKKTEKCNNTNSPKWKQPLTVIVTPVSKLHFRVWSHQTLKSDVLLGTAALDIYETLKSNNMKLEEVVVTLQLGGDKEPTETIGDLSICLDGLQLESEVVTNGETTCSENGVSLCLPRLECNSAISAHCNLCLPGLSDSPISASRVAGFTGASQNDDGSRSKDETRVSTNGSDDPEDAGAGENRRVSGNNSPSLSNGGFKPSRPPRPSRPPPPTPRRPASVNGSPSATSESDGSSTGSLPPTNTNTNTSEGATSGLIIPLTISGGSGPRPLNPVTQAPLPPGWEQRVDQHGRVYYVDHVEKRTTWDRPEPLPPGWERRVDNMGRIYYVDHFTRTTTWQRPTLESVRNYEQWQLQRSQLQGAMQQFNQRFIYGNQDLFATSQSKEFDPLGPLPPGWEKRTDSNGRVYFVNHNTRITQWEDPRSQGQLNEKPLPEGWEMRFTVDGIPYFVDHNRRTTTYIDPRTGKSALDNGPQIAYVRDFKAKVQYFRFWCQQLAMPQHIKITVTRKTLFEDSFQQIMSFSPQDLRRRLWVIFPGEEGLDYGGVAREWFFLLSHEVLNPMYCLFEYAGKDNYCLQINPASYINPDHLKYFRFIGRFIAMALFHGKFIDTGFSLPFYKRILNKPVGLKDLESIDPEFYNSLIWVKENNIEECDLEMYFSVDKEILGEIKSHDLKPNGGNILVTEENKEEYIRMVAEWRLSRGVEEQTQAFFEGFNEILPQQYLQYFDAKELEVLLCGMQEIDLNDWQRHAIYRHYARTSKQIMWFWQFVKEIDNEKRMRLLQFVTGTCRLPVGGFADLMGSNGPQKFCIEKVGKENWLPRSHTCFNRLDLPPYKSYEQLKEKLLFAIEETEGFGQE

Measured: binding

E3 ligase ITCH (from UniProt Q96J02 2-903) (enzyme)
binds: all assays above
